{"source": "patent US8278044B2", "about": "“Method for the identification of carcinogenic compounds” (priority 2008, dated 2012)", "test_system": "HepG2 cells", "test": "Gene expression analyses with DNA microarrays (Agilent), Reactome and T-profiler", "type": "cell-based, human", "details": "3 μM BaP", "method": "Labelling and hybridisation of RNA samples was done according to Agilent's manual for microarrays (Agilent Technologies, Breda, The Netherlands). […] For each biological experiment, two hybridizations per time point were conducted, with swapped Cy3 and Cy5 dyes.\nThe images (10 micron resolution; 16 bit tiff) were processed with ImaGene 6.0 to quantify spot signals (BioDiscovery Inc., Los Angeles, USA). Irregular spots were automatically flagged and excluded from data analysis. Data from ImaGene were further processed with GeneSight 4.1.6 (BioDiscovery Inc., Los Angeles, USA). For each spot, background was subtracted and flagged spots as well as spots with a net expression level below 20 in both channels were omitted. Data were log base 2 transformed and LOWESS normalized. If for a gene more probes were on the array, replicates were averaged while omitting outliers (>2 standard deviations). Raw data are available at ArrayExpress (accession numbers E-TOXM-22 and E-TOXM-23, for the first and second experiment respectively) (www.ebi.ac.uk/arrayexpress/). […]\nT-profiler is used for functional annotation of pathways and processes in the complete data set of genes without pre-selecting modulated genes. […] Per experiment and time point t-values were determined for each gene set. […]", "data": [{"smiles": "c1ccc2c(c1)cc1ccc3cccc4ccc2c1c34", "note": "[BaP, benzo[a]pyrene]", "values": [{"measurement": "number of differentially expressed genes", "setting": "3 to 60 h, 4 replicates combined with ANOVA", "result": 2808, "unit": "genes"}, {"measurement": "number of gene sets identified as being modulated (T-profiler)", "setting": "analysis per time point", "result": 155, "unit": "gene sets"}]}]}
